Source: PubChem BioAssay AID1259405 (NCATS, 2018)
The whole screen tested about 50,000 reagents; below is a part drawn at random. Of all reagents, about 4,000 (8%) got an active call. 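Mouse siRNA library applied to hamster cells; one well for each siRNA.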 Entries without a mark were called inactive. Reagents against one gene are numbered here.

- Aim: 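Knock-downs that lift recombinant protein yield in hamster ovary cells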 (primary screen)
- Cells: Chinese hamster CHO-K1 ovary cells with stable secreted eGFP expression
- Reagent: single siRNA against mouse genes, 0.8 pmol siRNA per well (2 µl of 400 nM stock)
- Time to read-out: 3 days
- Read-out: 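Percent of the per-plate non-targeting control median for intracellular GFP per well by laser scanning cytometry and for cell viability by ATP luminescence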
- Reading the numbers: GFP, % of control: higher = more GFP per well, higher productivity; viability (ATP), % of control: higher = more viable cells (more ATP)
- Rule for the call: 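a knock-down is called active if GFP reaches 120% or more of non-targeting control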

| gene | reagent no. | GFP, % of control | viability (ATP), % of control |
| --- | --- | --- | --- |
| Tas2r114 | 1 | 58.4 | 67.8 |
| Tas2r114 | 2 | 76.7 | 81.2 |
| Tas2r114 | 3 | 80.9 | 92.1 |
| Gsx1 | 1 | 54.8 | 49.1 |
| Gsx1 | 2 | 91.3 | 45 |
| Gsx1 | 3 | 106 | 98.3 |
| Antxr1 | 1 | 108 | 68.3 |
| Antxr1 | 2 | 61.7 | 64.7 |
| Antxr1 | 3 | 179 (active) | 55 |
| Krt85 | 1 | 78.6 | 97.6 |
| Krt85 | 2 | 31.9 | 39.4 |
| Il17rc | 1 | 90.5 | 111 |
| Il17rc | 2 | 96.9 | 55.8 |
| Il17rc | 3 | 88.3 | 50.5 |
| Scoc | 1 | 93.7 | 99.5 |
| Scoc | 2 | 76.6 | 47.8 |
| Scoc | 3 | 134 (active) | 70.9 |
| Noxo1 | 1 | 102 | 62.6 |
| Noxo1 | 2 | 61.3 | 94.4 |
| Noxo1 | 3 | 155 (active) | 104 |

Continued; the last 4 above are carried over.
| gene | reagent no. | GFP, % of control | viability (ATP), % of control |
| --- | --- | --- | --- |
| Scoc | 3 | 134 (active) | 70.9 |
| Noxo1 | 1 | 102 | 62.6 |
| Noxo1 | 2 | 61.3 | 94.4 |
| Noxo1 | 3 | 155 (active) | 104 |
| Or4a68 | 1 | 181 (active) | 55.2 |
| Or4a68 | 2 | 98.7 | 65.4 |
| Or4a68 | 3 | 42.1 | 102 |
| Or52n3 | 1 | 93.2 | 58.5 |
| Or52n3 | 2 | 78.6 | 83.5 |
| Or52n3 | 3 | 74.6 | 103 |
| Gabbr1 | 1 | 127 (active) | 103 |
| Gabbr1 | 2 | 100 | 69.3 |
| Gabbr1 | 3 | 69.4 | 65.6 |
| Or2d2 | 1 | 81.9 | 64.3 |
| Or2d2 | 2 | 93.3 | 89.2 |
| Or2d2 | 3 | 45.3 | 20.7 |
| Notch3 | 1 | 124 (active) | 86.8 |
| Notch3 | 2 | 130 (active) | 85.2 |
| Notch3 | 3 | 93.1 | 61.8 |
